Experimental data taken from patent US20230139700A1.
No constants are given. Whether binding was seen depends on the method and setting. Some binding calls cover weakened binding; strength is not graded here.

Chains of the proteins cited; added tags and fusions are not shown. Residues count along the entry.
UniProt P43489, residues 29-277: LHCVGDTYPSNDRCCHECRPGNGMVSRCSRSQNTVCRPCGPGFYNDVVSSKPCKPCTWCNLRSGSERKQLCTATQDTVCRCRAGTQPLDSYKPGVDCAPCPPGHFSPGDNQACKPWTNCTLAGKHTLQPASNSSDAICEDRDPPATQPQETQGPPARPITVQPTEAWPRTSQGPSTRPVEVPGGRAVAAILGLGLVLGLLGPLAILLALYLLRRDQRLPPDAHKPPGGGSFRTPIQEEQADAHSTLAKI

Biological target: human OX40 on cells (human) (UniProt P43489)
Test: flow cytometry on Jurkat-hOX40 cells, 100 nM antibody, secondary antibody; parental Jurkat as control

| Binder | binding |
| --- | --- |
| Antibody-X35-6L (antibody, human IgG1, kappa, V domains shown) VH: EVQLVESGGGLVQPGRSLRLSCAASGFTFDDYAMHWVRQAPGRGLEWVSGIGGSGGSTYYADSVKGRFTISRDNSKNTLYLQMNGLGAEDTAVYYCAKDRGYGDYYWYFDLWGRGTLVTVSS VL: SSELTQPASVSGSPGQSITISCTGTSSDVGGYNYVSWYQQHPGKAPKLMIYDVSNRPSGVSNRFSGSKSGNTASLTISGLQAEDEADYYCSSYTTSSTLVFGGGTKVTVLR | binds |
| Antibody-F15-1L (antibody, human IgG1, kappa, V domains shown) VH: QVQLRESGGGLVQPGGSLRLSCAASGFTFSSYAMNWVRQAPGKGLEWVSAISGSGGNTYYADSVKGRLTISRDNSKNTLYLQMNSLRAEDTAVYYCAKDPLGSSWFEYFQHWGQGTLVTVSS VL: QSALTQPASVSGSPGQSITISCTGTSSDVGGYNYVSWYQKHPGKAPKLMIYEVSNRPSGVSNRFSGSKSANTASLTISGLQAEDEADYFCSSYSSSSTLVVFGGGTKLTVLR | binds |
